About 6,500 (11%) of roughly 59,000 compounds were called active. Inconclusive results, whose numbers are uncertain, are shown with a selection of clear calls. Rule as the data show it: active = max dye-equivalent concentration above about 10 nM; inconclusive = mostly about 1.1 nM to 9.6 nM; inactive = weaker than that.
Experiment: qHTS Assay for Spectroscopic Profiling in A350 Spectral Region
Conditions: Compound autofluorescence, 340/450 nm, Alexa 350 dye-equivalents; hits give high values

Compound	max dye-equivalent concentration
Cc1ccc(NC(=O)CS(=O)CC(=O)N(C2CCCC2)C(C)C(=O)NC2CCCCC2)cc1 (configuration not stated)	inconclusive: 1.1 nM
CCOC(=O)c1cc2ccc(OC)c(OC)c2c(=O)s1	inconclusive: 9.4 nM
Cc1cc(-c2ccccc2)nc(N2CCN(c3ccccn3)CC2)n1	active: 72 nM
Cc1ccc(Nc2oc(C)nc2C#N)cc1	inconclusive: 1.3 nM
CCOc1ccccc1NC(=O)c1cc(Cl)ccc1NC(=O)c1ccco1	active: 35 nM
COc1cccc2oc(-c3ccc(O)cc3)cc(=O)c12	inconclusive: 8 nM
CN(C)c1ncc2nc(-c3cc(F)cc(F)c3)c(=O)n(C)c2n1	inconclusive: 7.3 nM
O=C1CC(c2ccc(F)cc2)Sc2ccccc2N1 (configuration not stated)	inconclusive: 1.1 nM
Cc1n[nH]c(C)c1S(=O)(=O)N1CCCC(C(=O)Nc2ccc3c(c2)OCCO3)C1 (configuration not stated)	inactive
Cc1cc(Cl)ccc1OCc1nc(-c2ccc(O)cc2)n[nH]1	inconclusive: 3.9 nM
Cc1nnsc1NC(=O)OCC(C)C	inconclusive: 6.3 nM
Cc1cc(C)n(C(=O)C(C)N2C(=O)c3ccccc3C2=O)n1 (configuration not stated)	inconclusive: 1.1 nM
c1csc(-n2nc3ccccc3n2)c1	inconclusive: 1.3 nM
CCc1ccccc1N1CSC2=C(C#N)C(c3cc(OC)c(OC)cc3OC)CC(=O)N2C1 (configuration not stated)	inconclusive: 6.4 nM
O=C(O)c1cccc(S(=O)(=O)NCC2CCCO2)c1 (configuration not stated)	inconclusive: 6.8 nM
COc1cccc(Cn2c(=O)c(-c3ccccc3)nc3cnc(N4CCN(C)CC4)nc32)c1	inconclusive: 1.4 nM
Cc1ccc2oc3c(c(=O)c2c1)C(c1cccc(Br)c1)N(Cc1ccco1)C3=O (configuration not stated)	inconclusive: 1.1 nM
N#C/C(=C\Nc1ccc2c(c1)OCCO2)c1nc2ccccc2[nH]1	inconclusive: 6.1 nM
Cc1ccnc(NC(=O)CCC(=O)N(CC(=O)NC2CCCCC2)c2cccc(C)c2C)c1	inconclusive: 1.4 nM
COc1nnc(-c2ccc(C(=O)N3C[C@@H]4C[C@H](C3)c3cccc(=O)n3C4)cc2)c2ccccc12	inconclusive: 2.7 nM
CCCCC(=O)N1CC2(C)CN(C(=O)CCCC)CC(C)(C1)C2=O	inactive
C[C@@H]1C[C@H](OC(=O)c2ccccc2O)CC(C)(C)C1	inactive
CN(C(=O)CSc1nc(-c2ccc(F)cc2)cs1)C1CCS(=O)(=O)C1 (configuration not stated)	inconclusive: 4.1 nM
Cc1ccc(C)c(C(=O)NC2CC(C)(C)NC(C)(C)C2)c1	active: 1400 nM

Compound	max dye-equivalent concentration
O=S(=O)(Nc1nc2ccccc2nc1NCC1CCCO1)c1cccs1 (configuration not stated)	active: 58 nM
c1ccc(CCNc2c3c(nc4ncnn24)CCC3)cc1	inconclusive: 2.9 nM
Cc1cc(C)nc(N2CCCC(C(=O)NCCC3=CCCCC3)C2)n1 (configuration not stated)	inconclusive: 1.2 nM
COc1ccc(CNc2cc(-c3ccccc3Cl)ncn2)c(OC)c1	inactive
CN(C)c1ncc2nc(CCc3ccccc3)c(=O)n(CCC#N)c2n1	active: 26 nM
CC(C)NC[C@H](O)c1ccc(O)c(O)c1	inconclusive: 2.6 nM
COCCCNC(=O)C1CCN(S(=O)(=O)c2c(C)noc2/C=C\c2ccc(OC)cc2)CC1	active: 150 nM
O=C(COc1ncnc2ccccc12)NC1CCS(=O)(=O)C1 (configuration not stated)	inconclusive: 1.1 nM
CCOC(=O)c1cc(C#N)c(N)nc1C	inactive
Cc1nc(-c2ccc(NC(=O)c3cccs3)cc2)cs1	active: 280 nM
O=C(NCc1ccc2c(c1)OCO2)C1CCN(S(=O)(=O)c2cccc3nsnc23)CC1	inconclusive: 4.1 nM
O=C(NCCN1CCOCC1)c1ccc2c(c1)N(Cc1ccccc1)C(=O)CS2	inconclusive: 5.1 nM
CC(O)CNc1nc2c(c(=O)n(C)c(=O)n2C)n1Cc1cccc(C(F)(F)F)c1 (configuration not stated)	inconclusive: 1.6 nM
COC(=O)COc1nc(C)c2c(c1C#N)CC(C)(C)OC2	active: 12 nM
CNC[C@@H](SC)c1ccc(O)c(O)c1	inactive
Cc1ccc(C)c(NC(=O)c2nnn(Cc3ccccc3)c2N)c1	inactive
Cc1nn(C(=O)CCCC(=O)n2nc(C)c(Cl)c2C)c(C)c1Cl	inactive
Cc1cc(=O)[nH]c(SCCOc2ccc(OC(C)C)cc2)n1	active: 66 nM
Cc1cc(=O)oc(C)c1C(=O)NCCC1=CCCCC1	inconclusive: 3.5 nM
Cc1nn(C(=O)c2cccnc2)c(C)c1C	inactive
O=C(CCn1c(=O)c2ccccc2n(CC(=O)NCCC2=CCCCC2)c1=O)NCc1ccco1	inactive
CCn1c(SCC(=O)N2CC(=O)Nc3ccccc32)nnc1-c1ccoc1C	inconclusive: 2.3 nM
Cc1ccc(CS(=O)(=O)CCC(=O)NCCN2CCCCC2C)cc1 (configuration not stated)	inconclusive: 1.5 nM

Two entries from above in another layout:
COc1ccc(CNc2cc(-c3ccccc3Cl)ncn2)c(OC)c1
  max dye-equivalent concentration: inactive
CN(C)c1ncc2nc(CCc3ccccc3)c(=O)n(CCC#N)c2n1
  max dye-equivalent concentration: active: 26 nM

— PubChem BioAssay AID590 (National Center for Advancing Translational Sciences (NCATS), 2007)
